Paper PMC7755977
Results are given in words; binding and its absence hold for the method and conditions named. Binding seen in cells or lysates may run through a third protein. Some entries that bind do so weakly or less than the wild type.

Target: Yes-associated protein1, P46937
Experiment: co-IP; 5637 cells transfected with expression vectors; cell lysates immunoprecipitated with an anti-Flag antibody, Western blot with indicated antibodies; cells treated with miR-497 or miR-195 mimic or inhibitor
Conditions: remark: other sources report otherwise

binding: binds
B1: SMAD3, P84022 1-425 (protein)
chain: MSSILPFTPPIVKRLLGWKKGEQNGQEEKWCEKAVKSLVKKLKKTGQLDELEKAITTQNVNTKCITIPRSLDGRLQVSHRKGLPHVIYCRLWRWPDLHSHHELRAMELCEFAFNMKKDEVCVNPYHYQRVETPVLPPVLVPRHTEIPAEFPPLDDYSHSIPENTNFPAGIEPQSNIPETPPPGYLSEDGETSDHQMNHSMDAGSPNLSPNPMSPAHNNLDLQPVTYCEPAFWCSISYYELNQRVGETFHASQPSMTVDGFTDPSNSERFCLGLLSNVNRNAAVELTRRHIGRGVRLYYIGGEVFAECLSDSAIFVQSPNCNQRYGWHPATVCKIPPGCNLKIFNNQEFAALLAQSVNQGFEAVYQLTRMCTIRMSFVKGWGAEYRRQTVTSTPCWIELHLNGPLQWLDKVLTQMGSPSIRCSSVS
